Values from PubChem BioAssay AID720505 (Drosophila RNAi Screening Center, 2013)
The screen tested about 20,000 reagents; below is a random part of those with a known target gene and a result. Over the whole deposit, about 2,100 (10%) were called active. 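Raw plate signals without normalisation; calls rest on control-based scores that were not deposited; replicate 2 separates called from uncalled poorly.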 Reagents against one gene are numbered here. A plus sign joins genes that one reagent is predicted to hit. Not stated in the record: the amount of reagent, the time to read-out.

- Purpose: 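Knock-downs that reduce calcium influx once internal stores are emptied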 (primary screen)
- System: Drosophila S2R+ cells
- Reagent: long dsRNA against Drosophila genes
- Conditions: thapsigargin (2 µM) in calcium-free buffer to empty internal stores, then 2 mM calcium added back
- Measured: 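Stores emptied by 2 µM thapsigargin without calcium, then 2 mM calcium re-added; fluo-4 fluorescence followed by FLIPR in 384-well plates, per-well averaged endpoint, raw; two screen passes, some wells retested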
- Direction: calcium signal and retest calcium signal: higher = more calcium entry after store depletion
- Call rule: 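About 1500 genes called as lowering calcium entry, by varying amounts, judged against per-plate control wells with STIM1 as positive and Rho1 as negative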
- Calls: active = called as lowering calcium entry; inactive = not called

CG15317 | calcium signal, replicate 1: 115; calcium signal, replicate 2: 92.3; Call: inactive
Dok | calcium signal, replicate 1: 223; calcium signal, replicate 2: 115; Call: inactive
toc #1 | calcium signal, replicate 1: 79.2; calcium signal, replicate 2: 150; Call: inactive
toc #2 | calcium signal, replicate 1: 58; calcium signal, replicate 2: 98.7; Call: active
toc #3 | calcium signal, replicate 1: 119; calcium signal, replicate 2: 187; Call: inactive
noc | calcium signal, replicate 1: 131; calcium signal, replicate 2: 139; Call: inactive
HmgD | calcium signal, replicate 1: 61.7; calcium signal, replicate 2: 131; Call: active
CG14459 #1 | calcium signal, replicate 1: 77; calcium signal, replicate 2: 84.9; Call: inactive
CG14459 #2 | calcium signal, replicate 1: 115; calcium signal, replicate 2: 157; Call: inactive
GC1 | calcium signal, replicate 1: 152; calcium signal, replicate 2: 101; Call: inactive
CG12301 | calcium signal, replicate 1: 107; calcium signal, replicate 2: 71.4; Call: inactive
Cnep1r2 | calcium signal, replicate 1: 80.2; calcium signal, replicate 2: 92.7; Call: inactive
Rassf | calcium signal, replicate 1: 188; calcium signal, replicate 2: 285; Call: inactive
Obp50c + Obp50b | calcium signal, replicate 1: 121; calcium signal, replicate 2: 120; Call: inactive
betaNACtes1 | calcium signal, replicate 1: 81.9; calcium signal, replicate 2: 114; Call: inactive
CG17211 | calcium signal, replicate 1: 116; calcium signal, replicate 2: 96.1; Call: inactive
CG14572 | calcium signal, replicate 1: 97.4; calcium signal, replicate 2: 229; Call: inactive
CG13912 | calcium signal, replicate 1: 75.2; calcium signal, replicate 2: 105; Call: inactive
CG1648 | calcium signal, replicate 1: 146; calcium signal, replicate 2: 150; retest calcium signal, replicate 1: 87.7; retest calcium signal, replicate 2: 98.8; Call: inactive
RhoGAP68F | calcium signal, replicate 1: 103; calcium signal, replicate 2: 116; Call: inactive
CG5013 | calcium signal, replicate 1: 125; calcium signal, replicate 2: 156; Call: inactive
CG1850 | calcium signal, replicate 1: 130; calcium signal, replicate 2: 164; Call: inactive
RhoGAP1A #1 | calcium signal, replicate 1: 74.4; calcium signal, replicate 2: 174; Call: active
RhoGAP1A #2 | calcium signal, replicate 1: 205; calcium signal, replicate 2: 94.9; Call: inactive
CHOp24 | calcium signal, replicate 1: 119; calcium signal, replicate 2: 159; Call: inactive
Dlip3 | calcium signal, replicate 1: 191; calcium signal, replicate 2: 106; Call: inactive
CG43102 #1 | calcium signal, replicate 1: 104; calcium signal, replicate 2: 140; retest calcium signal, replicate 1: 97.6; retest calcium signal, replicate 2: 77.9; Call: inactive
CG43102 #2 | calcium signal, replicate 1: 66; calcium signal, replicate 2: 91.4; Call: active

A stretch taken from the entries so far, as a working copy:
Dlip3 | calcium signal, replicate 1: 191; calcium signal, replicate 2: 106; Call: inactive
CG43102 #1 | calcium signal, replicate 1: 104; calcium signal, replicate 2: 140; retest calcium signal, replicate 1: 97.6; retest calcium signal, replicate 2: 77.9; Call: inactive
